According to patent US7250390B2, “High performance water based drilling fluids and method of use” (M-I L.L.C., priority 2002, dated 2007):

Assay: Shale dispersion test, hot rolling cuttings in field mud
Details: Foss Eikland Cuttings (4.6-8.0 mm), hot rolled 16 hours at 150° F.

With `OCCNCCCOCCNCCO` [(I)] the “Total Recovered” value (Base Field Mud (11.78 ppb) potassium based lignite + 21 ppb (I)) was 78.0% and the “Total Recovered” value (Base Field Mud (16.8 ppb) chrome free lignosulfonate + 10.5 ppb (I)) was 85.3%.
